Reference: PubChem BioAssay AID248 (DTP/NCI, 2004)
The list does not hold the whole screen: it is rich in T/C values a quarter to a half above the control, in often repeated tests (any T/C) and in doses without a T/C. Other doses and runs of a compound stand elsewhere. T/C is the treated group as % of the vehicle group. Some doses have a count of surviving animals in place of a T/C: the source files T/C as zero there, which appears to mark a toxic dose or a test without result, not a measured value. Some survivor counts are full or nearly so, which does not show that the dose was tolerated: the source hardly ever lists a survival T/C far under the control, and the zero likely stands for such cases as well. Survivors were counted at the toxicity check, usually on the fifth day, unless a day is given; later deaths do not show. Schedules are NCI's codes, read here as Q, the interval in days (D) or hours (H), X, the number of doses. Where survival is the endpoint, this PubChem deposit counts one and a half times the control or more as active, and values a quarter to a half above the control carry no call in these data; other NCI protocols may use other cut-offs. Some T/C values are followed by the survivors on the day toxicity was checked, most often the fifth; without a count, all were alive then. Some entries were tested several times; the values are given in rising order. Some schedule codes hold Z or #, which are not explained here.

System: L1210 leukemia ip in BDF1 mice, survival T/C
Test: NCI In Vivo Anticancer Drug Screen. Data for tumor model L1210 Leukemia (intraperitoneal) in B6D2F1 (BDF1) mice
Conditions: T/C endpoint: mean survival time, higher T/C = longer survival

## NC(=S)N/N=C/c1ccc(O)cn1
dose: 3.13 mg/kg/injection, schedule: Q03HX024 (ip), vehicle: other
  T/C: 128 % of control
dose: 3.13 mg/kg/injection, schedule: Q03HX024 (ip), vehicle: saline
  T/C: 138 % of control
dose: 6.25 mg/kg/injection, schedule: Q03HX024 (ip), vehicle: Klucel (hydroxypropylcellulose) (HPC)
  T/C: 130 % of control
dose: 6.25 mg/kg/injection, schedule: Q03HX024 (ip), vehicle: other
  T/C: 140 % of control
dose: 6.25 mg/kg/injection, schedule: Q03HX024 (ip), vehicle: saline
  T/C: 125 and 144 % of control
dose: 9.5 mg/kg/injection, schedule: Q01DX005 (ip), vehicle: other
  T/C: 136 % of control
dose: 12.5 mg/kg/injection, schedule: Q03HX024 (ip), vehicle: other
  T/C: 137 % of control
dose: 17.0 mg/kg/injection, schedule: Q03HX032 (ip), vehicle: saline with Tween-80
  T/C: 139 % of control
dose: 18.8 mg/kg/injection, schedule: Q01DX009 (ip), vehicle: saline with Tween-80
  T/C: 137 % of control
dose: 19.0 mg/kg/injection, schedule: Q01DX005 (ip), vehicle: other
  T/C: 138 % of control
dose: 19.4 mg/kg/injection, schedule: Q03HX024 (ip), vehicle: saline with Tween-80
  T/C: 145 % of control
dose: 20.0 mg/kg/injection, schedule: Q06HX016 (ip), vehicle: Klucel (hydroxypropylcellulose) (HPC)
  T/C: 141 % of control
dose: 25.0 mg/kg/injection, schedule: Q03HX024 (ip), vehicle: other
  T/C: 140 and 145 % of control
dose: 25.0 mg/kg/injection, schedule: Q03HX024 (ip), vehicle: saline
  T/C: 129 % of control
dose: 30.0 mg/kg/injection, schedule: Q03HX024 (ip), vehicle: saline with Tween-80, evaluated on day 5
  T/C: 195, 215, 301, 381 % of control
dose: 30.0 mg/kg/injection, schedule: Q03HX024 (ip), vehicle: saline with Tween-80, evaluated on day 60
  T/C: 215 and 301 % of control
dose: 30.0 mg/kg/injection, schedule: Q03HX032 (ip), vehicle: other
  T/C: 168, 204, 230, 298 % of control
dose: 30.0 mg/kg/injection, schedule: Q06HX016 (ip), vehicle: Klucel (hydroxypropylcellulose) (HPC)
  T/C: 141 % of control
dose: 37.5 mg/kg/injection, schedule: Q01DX005 (ip), vehicle: alkali diluted with saline
  T/C: 141 % of control
dose: 37.5 mg/kg/injection, schedule: Q01DX005 (ip), vehicle: other
  T/C: 130 and 140 % of control
dose: 37.5 mg/kg/injection, schedule: Q01DX009 (ip), vehicle: saline with Tween-80
  T/C: 148 % of control
dose: 38.0 mg/kg/injection, schedule: Q01DX005 (ip), vehicle: other
  T/C: 141 % of control
dose: 38.0 mg/kg/injection, schedule: Q01DX005 (iv), vehicle: other
  survivor count: 3 of 5
dose: 40.0 mg/kg/injection, schedule: Q01DX009 (ip), vehicle: saline with Tween-80
  T/C: 142 % of control
dose: 44.0 mg/kg/injection, schedule: Q03HX024 (ip), vehicle: saline with Tween-80, evaluated on day 5
  T/C: 198, 247, 327, 528 % of control
dose: 44.0 mg/kg/injection, schedule: Q03HX024 (ip), vehicle: saline with Tween-80, evaluated on day 45
  T/C: 335 % of control
dose: 44.0 mg/kg/injection, schedule: Q03HX024 (ip), vehicle: saline with Tween-80, evaluated on day 60
  T/C: 247 and 528 % of control
dose: 45.0 mg/kg/injection, schedule: Q03HX032 (ip), vehicle: other
  T/C: 231, 296 [9 of 10 alive], 305, 354 % of control
dose: 50.0 mg/kg/injection, schedule: Q06HX016 (ip), vehicle: Klucel (hydroxypropylcellulose) (HPC)
  T/C: 146 % of control
dose: 50.0 mg/kg/injection, schedule: Q## X024 (ip), vehicle: other
  T/C: 144 % of control [9 of 10 alive]
dose: 60.0 mg/kg/injection, schedule: Q01DX009 (ip), vehicle: saline with Tween-80
  T/C: 148 % of control
dose: 66.0 mg/kg/injection, schedule: Q03HX024 (ip), vehicle: saline with Tween-80, evaluated on day 5
  T/C: 97, 133, 135, 197 % of control
dose: 66.0 mg/kg/injection, schedule: Q03HX024 (ip), vehicle: saline with Tween-80, evaluated on day 45
  T/C: 116 % of control
dose: 66.0 mg/kg/injection, schedule: Q03HX024 (ip), vehicle: saline with Tween-80, evaluated on day 60
  T/C: 135 and 197 % of control
dose: 75.0 mg/kg/injection, schedule: Q01DX005 (ip), vehicle: alkali diluted with saline
  T/C: 137 % of control
dose: 75.0 mg/kg/injection, schedule: Q01DX005 (ip), vehicle: other, evaluated on day 30
  T/C: 145, 156, 164 % of control
dose: 75.0 mg/kg/injection, schedule: Q01DX005 (ip), vehicle: other, evaluated on day 40
  T/C: 163 % of control
dose: 75.0 mg/kg/injection, schedule: Q01DX005 (iv), vehicle: other
  survivor count: 1 of 5
dose: 75.0 mg/kg/injection, schedule: Q## X008 (ip), vehicle: other
  T/C: 137 % of control
dose: 75.0 mg/kg/injection, schedule: Q## X016 (ip), vehicle: other
  T/C: 147 % of control
dose: 99.0 mg/kg/injection, schedule: Q03HX024 (ip), vehicle: saline with Tween-80
  survivor count: 10 of 10
dose: 100.0 mg/kg/injection, schedule: Q01DX009 (oral), vehicle: carboxymethylcellulose (CMC)
  T/C: 134 % of control
dose: 100.0 mg/kg/injection, schedule: Q03HX024 (ip), vehicle: alkali diluted with saline
  survivor count: 3 of 10
dose: 100.0 mg/kg/injection, schedule: Q03HX024 (ip), vehicle: other
  T/C: 142 % of control
dose: 100.0 mg/kg/injection, schedule: Q## X003 (ip), vehicle: other
  T/C: 139 % of control
dose: 120.0 mg/kg/injection, schedule: Q01DX009 (ip), vehicle: saline
  T/C: 147 % of control
dose: 140.0 mg/kg/injection, schedule: Q01DX009 (ip), vehicle: saline
  T/C: 136 % of control
dose: 150.0 mg/kg/injection, schedule: Q01DX005 (ip), vehicle: alkali diluted with saline
  T/C: 138 % of control
dose: 150.0 mg/kg/injection, schedule: Q01DX005 (ip), vehicle: other, evaluated on day 30
  T/C: 154, 156, 167 % of control
dose: 150.0 mg/kg/injection, schedule: Q01DX005 (ip), vehicle: other, evaluated on day 40
  T/C: 168 % of control [9 of 10 alive]
dose: 150.0 mg/kg/injection, schedule: Q01DX005 (iv), vehicle: other
  survivor count: 0 of 5
dose: 150.0 mg/kg/injection, schedule: Q03HX008 (ip), vehicle: alkali diluted with saline
  survivor count: 5 of 10
dose: 150.0 mg/kg/injection, schedule: Q03HX016 (ip), vehicle: alkali diluted with saline
  survivor count: 2 of 10
dose: 150.0 mg/kg/injection, schedule: Q03HX024 (ip), vehicle: other
  T/C: 131 % of control
dose: 150.0 mg/kg/injection, schedule: Q03HX024 (ip), vehicle: saline
  survivor count: 8 of 8
dose: 200.0 mg/kg/injection, schedule: Q01DX001 (ip), vehicle: saline
  T/C: 129 % of control
